US7338809B2, “Method for assaying whole blood” (Mitsubishi Kagaku Iatron, Inc., priority 2001, dated 2008)
Where two headings read alike, the source gives them in different places.

Columns and labels:
HBsAg [1] = conditions: detergent 2% upon mixing of whole blood; fresh blood immediately after collection; plasma = 100%
HBsAg [2] = conditions: HBsAg 0.5 U/ml, heparin whole blood stored overnight at 4° C., plasma = 100%
HBsAg [3] = conditions: HBsAg 1 U/ml, EDTA whole blood stored at 4° C. for 3 days; for Recovery ratio: plasma = 100%
whole blood = test: Example 4: visual inspection of reaction system, types and concentrations of detergents (hemolysis, adhesion, aggregation); conditions: heparin whole blood stored overnight at 4° C.
[4] = detergent 0.01% upon mixing of whole blood
[5] = detergent 0.1% upon mixing of whole blood
[6] = detergent 0.5% upon mixing of whole blood
[7] = detergent 1% upon mixing of whole blood
[8] = detergent 10% upon mixing of whole blood
[9] = detergent 2% upon mixing of whole blood

O=S(=O)([O-])CCC[n+]1ccccc1
Recovery ratio (HBsAg [1]): 86%
Recovery ratio (HBsAg [2]; [4]): 28%
Recovery ratio (HBsAg [2]; [5]): 51%
Recovery ratio (HBsAg [2]; [6]): 48%
Recovery ratio (HBsAg [2]; [7]): 86%
Recovery ratio (HBsAg [2]; [8]): 22%
Luminescence intensity (HBsAg [3]; [9]): 10830
Recovery ratio (HBsAg [3]; [9]): 88%

C[C@H](CCC(=O)NCCC[N+](C)(C)CCCS(=O)(=O)[O-])[C@H]1CC[C@H]2[C@@H]3[C@H](O)C[C@@H]4C[C@H](O)CC[C@]4(C)[C@H]3C[C@H](O)[C@]12C [CHAPS, 3-{(3-Cholamidopropyl)dimethylammonio}-1-propanesulfonate]
Luminescence intensity (HBsAg [3]; [7]): 8020
Recovery ratio (HBsAg [3]; [7]): 66%

CCCCCCCCCCCCOS(=O)(=O)[O-].[Na+] [SDS, Sodium dodecylsulfate]
Luminescence intensity (HBsAg [3]; [7]): 2450

Polyoxyethylene octyl phenyl ether [Triton X-100]
Adhesion of magnetic particles to reaction vessel wall (whole blood; [4]): Present
Aggregation of magnetic particles (whole blood; [4]): Present
Adhesion of magnetic particles to reaction vessel wall (whole blood; [5]): Present
Aggregation of magnetic particles (whole blood; [5]): Present
Adhesion of magnetic particles to reaction vessel wall (whole blood; [6]): Absent
Aggregation of magnetic particles (whole blood; [6]): Present
Adhesion of magnetic particles to reaction vessel wall (whole blood; [7]): Absent
Aggregation of magnetic particles (whole blood; [7]): Present
Adhesion of magnetic particles to reaction vessel wall (whole blood; [8]): Absent
Aggregation of magnetic particles (whole blood; [8]): Present
Luminescence intensity (HBsAg [3]; [7]): 5130
Recovery ratio (HBsAg [3]; [7]): 42%

Polyoxyethylene stearyl ether [Brij 78]
Luminescence intensity (HBsAg [3]; [7]): 5820
Recovery ratio (HBsAg [3]; [7]): 48%
